# The other results are listed elsewhere or left out.
# Test system: T1, CTL2-GFP (C. trachomatis L2/434/Bu, GFP-expressing)
# T1 construct: L2/434/Bu, GFP-expressing
# Design: species or system HeLa; Intracellular C. trachomatis growth in HeLa cells, bulk GFP fluorescence relative to DMSO
# Settings: bulk GFP, single well; 28.5 h, 10 µM; inhibitor
row,Compound,% of control remaining [%]
1,Cc1cc(NC(=O)C(=O)NC(C)c2ccccc2)ccc1Br (stereo not shown) [CBK267084],154.4
2,O=C1CC[C@@H](C(=O)N2CCc3nc(-c4ccccc4F)sc3C2)N1 [CBK281891],166.565
3,CN(C)CCCN1C(=O)C(O)=C(C(=O)c2cccs2)C1c1cccnc1 (stereo not shown) [CBK264511],100
4,CCCCc1ccc(Nc2csc(N)n2)cc1 [CBK020594],14.1935
5,Cc1cc(C)n2c(Nc3ccc(S(N)(=O)=O)cc3)nnc2n1 [CBK267601],107.138
6,CCOC(=O)N1CCN(C(=O)c2c(C)nn(C)c2Cl)CC1 [CBK304522],140.9
7,CC(C)N1CCC(CNC(=O)c2cc(C3CCCCC3)no2)CC1 [CBK283293],103.003
8,COc1ncccc1C(=O)N1CCN(c2ccccc2)CC1 [CBK200166],139.713
9,O=C(O)CCCCC/N=C1\CCc2ccccc2N1 [CBK286773],118.055
10,O=C(CCN1Cc2ccccc2C1=O)NCCN1CCc2ccccc21 [CBK282632],141.828
11,CCCCN(C)c1c(C)nc2ccc(C(=O)N(C)CCCN(C)C)cn12 [CBK146006],122.085
12,C[C@H](NC1=NC(=O)C2(CCN(Cc3ccccc3)CC2)O1)c1ccccc1 [CBK122798T],102.653
13,Nc1ncc(-c2cccc(CO)c2)nc1NC1CCCCC1 [CBK063650],189.189
14,NC(=O)c1c(NC(=O)Cn2cnc([N+](=O)[O-])n2)sc2c1CCCC2 [CBK027935],90.245
15,O=C(O)c1cc(S(=O)(=O)Nc2cccc(-c3cnco3)c2)c(F)cc1Cl [CBK067126],121.6
16,O=C1c2ccccc2NC(c2ccccc2F)N1O (stereo not shown) [CBK288377],139.188
17,COc1cccc(-n2c(=O)[nH]c3c(C(N)=O)nc(-c4ccccc4)nc32)c1 [CBK287740],98.0706
18,COCCN1C(=O)c2ccc(C(=O)Nc3ccc(O)c(C(=O)O)c3)cc2C1=O [CBK268344],143.732
19,COc1cc(S(=O)(=O)Nc2ccc(CC(=O)O)cc2)ccc1Cl [CBK287019],117.575
20,Cc1cc(CN(C)C(=O)c2cc3sccc3[nH]2)no1 [CBK304340],156.951
21,CS(=O)(=O)Cc1cccc(C(=O)Nc2ccc(Oc3ccccc3)cc2)c1 [CBK297111],140.892

# Molecules from the list above that have sulfur (9):
row,Compound,% of control remaining [%]
2,O=C1CC[C@@H](C(=O)N2CCc3nc(-c4ccccc4F)sc3C2)N1 [CBK281891],166.565
3,CN(C)CCCN1C(=O)C(O)=C(C(=O)c2cccs2)C1c1cccnc1 (stereo not shown) [CBK264511],100
4,CCCCc1ccc(Nc2csc(N)n2)cc1 [CBK020594],14.1935
5,Cc1cc(C)n2c(Nc3ccc(S(N)(=O)=O)cc3)nnc2n1 [CBK267601],107.138
14,NC(=O)c1c(NC(=O)Cn2cnc([N+](=O)[O-])n2)sc2c1CCCC2 [CBK027935],90.245
15,O=C(O)c1cc(S(=O)(=O)Nc2cccc(-c3cnco3)c2)c(F)cc1Cl [CBK067126],121.6
19,COc1cc(S(=O)(=O)Nc2ccc(CC(=O)O)cc2)ccc1Cl [CBK287019],117.575
20,Cc1cc(CN(C)C(=O)c2cc3sccc3[nH]2)no1 [CBK304340],156.951
21,CS(=O)(=O)Cc1cccc(C(=O)Nc2ccc(Oc3ccccc3)cc2)c1 [CBK297111],140.892

# Additional structures

row,Compound,% of control remaining [%]
1,Cc1ccc(N2C(=O)c3ccccc3NC23C(=O)N(C)c2ccc(Br)cc23)cc1 (stereo not shown) [CBK103752],99.83
2,Cc1ccc(NC(=O)c2cccnc2)c(C(=O)O)c1 [CBK000177],85.5997
3,Nc1nc(=O)c2cnc3c(Cl)cccc3c2s1 [CBK291229],140.52
4,CSCCCNC(=O)N1CCN(CCN2CCOCC2)CC1 [CBK155669],129.534
5,Nc1cc2cccnc2c(-c2ccsc2)n1 [CBK081218],139.012
6,C=CCOc1ccc(CNCCN2CCOCC2)cc1 [CBK278215C],129.019
7,CCc1nccnc1OC [CBK089673],142.388
8,O=C1NCCNC(=O)C2(C/C=C/COc3ccccc31)CCN(Cc1ccccc1F)CC2 [CBK292024],141.606
9,Cc1cc(NC(=O)CCN2CCC(N3CCNC3=O)CC2)no1 [CBK304909],139.086
10,CCOC(=O)Cc1csc(NS(=O)(=O)/C=C/c2ccccc2)n1 [CBK000072],116.913
11,C=CCN1C(=O)CC2(C1=O)C(=O)N(Cc1csc(-c3ccccc3)n1)c1ccc(Cl)cc12 (stereo not shown) [CBK075445],201.253
12,O=C(c1ccc(COc2ccc(I)cc2)cc1)N1CCCCCC1 [CBK058852],121.573
13,CCn1nc(C)c(C(C)NC(=O)CC(C)n2nc(C)cc2C)c1C (stereo not shown) [CBK281533],151.471
14,FC(F)(F)c1ccnc(SCCc2cnccn2)n1 [CBK105300],90.5731
15,CCOC(=O)Cn1[nH]c(COC(C)(C)C)c(Cc2c(Cl)cccc2Cl)c1=O [CBK103551],100.031
16,Cc1cc(C)n(-c2ccnc(NCc3cccnc3)n2)n1 [CBK288614],92.8389
17,Cc1ccc(C(=O)O)cc1NC(=S)NC(=O)c1ccc(-c2ccccc2)cc1 [CBK264997],118.023
18,O=C(CC1CCCCC1)N1CCCC1c1n[nH]cc1-c1ccncc1 (stereo not shown) [CBK283429],150.992
19,O=C1OC(c2ccco2)=N/C1=C/c1ccccc1OC(=O)c1ccco1 [CBK263980],100
20,CCOCCN1C[C@@H](C(F)(F)F)[C@H](C(=O)O)C1 [CBK287033],124.89
21,CC(C)Cn1ncc2cc(C(=O)Nc3cccnc3N(C)C)cnc21 [CBK304891],101.133

row,Compound,% of control remaining [%]
1,COc1ccc(Nc2ccc(-c3cnc(OC)nc3OC)cn2)c(C)c1 [CBK036827],111.809
2,CCN(C(=O)c1cc(C)nc2ccccc12)C1CCN(C)CC1 [CBK281920],151.374
3,COCCNC(=O)c1ccc(-c2cc(C(C)C)ccc2OC)nc1NCC1CC1 [CBK106256],89.1035
4,CCc1nc2c(OCC3CCCCO3)cccn2c1N(C)C(=O)c1ccc2c(c1)OCO2 (stereo not shown) [CBK147860],179.149
5,CCOc1ccc(S(=O)(=O)N2CCC(C(=O)NCCO)CC2)cc1 [CBK269817],141.135
6,Cc1cccn2cc(CSc3nnc4[nH]c5ccccc5n34)nc12 [CBK296996],114.69
7,CC(C)(C)OC(=O)N[C@@H]1C(=O)OC(C(O)CO)[C@@H]1O (stereo partly shown) [CBK008178],128.138
8,Cn1ncc2c1CCCN(C(=O)c1cccc(C(F)(F)F)c1)C2 [CBK282252],135.019
9,CN(C)S(=O)(=O)Nc1ccc2c(ccn2Cc2ccccc2)c1 [CBK155765],88.2806
10,Cc1ccc(CN(CCCn2ccnc2)Cc2[nH]cnc2C)s1 [CBK283138],120.629
11,NC(=O)c1ccccc1NC(=O)CN(c1cccc(Br)c1)S(=O)(=O)c1ccccc1 [CBK265263],112.606
12,CC(C)c1ccc(-c2cncc(NCCCO)n2)cc1 [CBK037937],140.507
13,CC(C)(C)C(=O)Nc1cccc(OC(F)(F)C(F)Cl)c1 (stereo not shown) [CBK018091],135.171
14,COc1cc(OC)c(OC)cc1CN1CCN(Cc2ccco2)CC1 [CBK074509G],135.068
15,N#Cc1c(NC(=O)C(=O)NCc2ccccn2)sc2c1CCCC2 [CBK269360],129.78
16,Cc1cc(OCC(=O)O)c(C)c2c1CC[C@@H]([C@H](C)C(=O)N1CCC(O)CC1)C2 [CBK289433],124.76
17,COc1ccccc1-c1cccc(NCC(c2cccnc2)N(C)C)n1 (stereo not shown) [CBK037770],213.462
18,Cc1ccc(S(=O)(=O)NC(C(=O)O)c2ccccc2)cc1 (stereo not shown) [CBK286985],151.886
19,O=C(COc1ccccc1[N+](=O)[O-])Nc1cc(-c2nc3cc(Cl)ccc3o2)ccc1Cl [CBK268639],82.8562
20,Fc1ccccc1CN1CCN(c2nccnc2OCCN2CCOCC2)CC1 [CBK082886T],96.8934
21,CCNC(=O)CN(CC)S(=O)(=O)c1cccc(C#N)c1 [CBK306481],124.181

row,Compound,% of control remaining [%]
1,Cc1ccc(NC2C=CS(=O)(=O)C2)cc1 (stereo not shown) [CBK057487],84.9742
2,O=C(NCc1cccs1)C1(Cc2cccc(-c3ccc(F)c(F)c3)c2)CCOCC1 [CBK285569],98.8365
3,Cc1nnc(SCC(=O)n2c3c(c4ccccc42)CCCC3)n1C [CBK268351],152.478
4,Cc1nc2ncnc(N3CCc4ccccc43)c2[nH]1 [CBK291228],146.526
5,CN1CCCC(NC(=O)c2cc(-c3cccs3)no2)C1 (stereo not shown) [CBK282564],115.082
6,CN(C)c1ccc(-n2ncc(-c3ccccc3C(F)(F)F)n2)cc1 [CBK112716],143.064
7,Cc1ccc(CSCC(=O)NCCN2CCOCC2)cc1 [CBK269327],128.871
8,Cc1nc(NS(=O)(=O)c2c(C)noc2C)sc1C(=O)Nc1ccc(F)cc1 [CBK050551],99.3272
9,COc1ccc(C)cc1Nc1nc(N)nc(-c2oc3ccccc3c2C)n1 [CBK269026],97.7396
10,CCn1cc(CN2CCC(Oc3cc(C)ccc3F)(C(=O)O)CC2)cn1 [CBK306644],91.2749
11,CC(NC(=O)CCc1ccncc1)C1CC2CCC1C2 (stereo not shown) [CBK282090],113.845
12,Cc1ccc(CN2C[C@@H]3CC[C@@](O)(c4ncccc4C)[C@@H]3C2)o1 [CBK285361],141.924
13,Cc1cc(C)c2cc(C)c3nn(CC(=O)N(C)C)c(=O)n3c2c1 [CBK283821],127.045
14,C=Cn1cc(CN2C3CCC2CC(O)(c2ccc(F)cc2)C3)c(C)n1 (stereo not shown) [CBK282742],103.672
15,CN(C)CCCOC(=O)c1cccnc1Cl [CBK027436],113.68
16,O=C(NCCO)c1cccc(-c2cnc3[nH]c(=O)n(Cc4ccccn4)c3n2)c1 [CBK065034],94.798
17,CCOC(=O)c1cnc(C(C)(C)C)nc1O [CBK018470],120.663
18,O=C(Nc1cccc([N+](=O)[O-])c1)c1ccc2nc(-c3ccccn3)c(-c3ccccn3)nc2c1 [CBK265137],145.805
19,CN(CC(=O)N1CCN(Cc2ccc3c(c2)OCO3)CC1)S(=O)(=O)c1ccccc1 [CBK265791],103.009

# 2 compounds picked at random from those above:
row,Compound,% of control remaining [%]
16,O=C(NCCO)c1cccc(-c2cnc3[nH]c(=O)n(Cc4ccccn4)c3n2)c1 [CBK065034],94.798
11,CC(NC(=O)CCc1ccncc1)C1CC2CCC1C2 (stereo not shown) [CBK282090],113.845

# Source: article PMC12040169 (PLOS Biology, 2025)
